Measured values taken from publication PMC8391421, “Identification of Novel Positive Allosteric Modulators of Neurotrophin Receptors for the Treatment of Cognitive Dysfunction” (Cells, 2021).
No constants are given. Whether binding was seen depends on the method and setting. Binding seen in cells or lysates may run through a third protein. Some entries that bind do so weakly or less than the wild type. Sequences can lack the tags named with a protein.

Protein sequences, listed by entry. Tags and fused reporters are not part of them. Residues count along the entry.
UniProt Q16620, residues 32-822: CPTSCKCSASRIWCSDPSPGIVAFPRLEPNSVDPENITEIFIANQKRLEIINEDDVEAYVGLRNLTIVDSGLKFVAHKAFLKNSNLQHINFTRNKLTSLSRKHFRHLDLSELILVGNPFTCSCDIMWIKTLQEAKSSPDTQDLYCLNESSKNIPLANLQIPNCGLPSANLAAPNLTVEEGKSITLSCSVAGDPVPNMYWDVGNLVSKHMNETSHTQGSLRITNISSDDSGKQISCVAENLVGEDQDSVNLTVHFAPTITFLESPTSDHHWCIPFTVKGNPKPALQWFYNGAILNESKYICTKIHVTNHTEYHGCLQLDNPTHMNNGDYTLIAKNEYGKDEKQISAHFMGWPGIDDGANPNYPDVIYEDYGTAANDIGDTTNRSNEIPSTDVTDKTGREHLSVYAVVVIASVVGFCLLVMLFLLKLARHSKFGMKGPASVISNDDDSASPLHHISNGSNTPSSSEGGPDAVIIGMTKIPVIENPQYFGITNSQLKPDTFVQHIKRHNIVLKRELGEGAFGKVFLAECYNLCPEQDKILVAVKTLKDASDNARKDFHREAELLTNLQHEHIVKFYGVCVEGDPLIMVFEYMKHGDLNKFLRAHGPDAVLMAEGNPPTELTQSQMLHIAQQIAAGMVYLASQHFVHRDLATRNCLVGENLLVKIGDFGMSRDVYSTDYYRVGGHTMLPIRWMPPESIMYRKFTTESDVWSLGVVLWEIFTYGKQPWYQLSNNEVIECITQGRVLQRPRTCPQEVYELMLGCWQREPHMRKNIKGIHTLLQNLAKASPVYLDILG

Target: TrkB (tropomyosin related kinase B receptor) fused to an enzyme donor tag, in U2OS-TrkB/p75 PathHunter cells (UniProt Q16620)
Experiment: split reporter; PathHunter β-galactosidase enzyme fragment complementation in U2OS-TrkA/p75 or U2OS-TrkB/p75 cells (5000 cells per well, 384-well plate, EMEM with 0.5% horse serum); Trk receptor fused to the enzyme donor, SHC-1 to the enzyme acceptor; stimulated with NGF or BDNF; luminescence read-out

binding: binds
B1: SHC-1 fused to the enzyme acceptor (larger part of β-galactosidase), in PathHunter cells (protein, UniProt P29353 1-583)
chain: MDLLPPKPKYNPLRNESLSSLEEGASGSTPPEELPSPSASSLGPILPPLPGDDSPTTLCSFFPRMSNLRLANPAGGRPGSKGEPGRAADDGEGIVGAAMPDSGPLPLLQDMNKLSGGGGRRTRVEGGQLGGEEWTRHGSFVNKPTRGWLHPNDKVMGPGVSYLVRYMGCVEVLQSMRALDFNTRTQVTREAISLVCEAVPGAKGATRRRKPCSRPLSSILGRSNLKFAGMPITLTVSTSSLNLMAADCKQIIANHHMQSISFASGGDPDTAEYVAYVAKDPVNQRACHILECPEGLAQDVISTIGQAFELRFKQYLRNPPKLVTPHDRMAGFDGSAWDEEEEEPPDHQYYNDFPGKEPPLGGVVDMRLREGAAPGAARPTAPNAQTPSHLGATLPVGQPVGGDPEVRKQMPPPPPCPGRELFDDPSYVNVQNLDKARQAVGGAGPPNPAINGSAPRDLFDMKPFEDALRVPPPPQSVSMAEQLRGEPWFHGKLSRREAEALLQLNGDFLVRESTTTPGQYVLTGLQSGQPKHLLLVDPEGVVRTKDHRFESVSHLISYHMDNHLPIISAGSELCLQQPVERKL
